# Measured values as given in article PMC7819943, “Rice protein-binding microarrays: a tool to detect cis-acting elements near promoter regions in rice”.
# Protein sequences, listed by entry. Tags and fused reporters are not part of them.
# UniProt Q0JBA9, entry or part of it: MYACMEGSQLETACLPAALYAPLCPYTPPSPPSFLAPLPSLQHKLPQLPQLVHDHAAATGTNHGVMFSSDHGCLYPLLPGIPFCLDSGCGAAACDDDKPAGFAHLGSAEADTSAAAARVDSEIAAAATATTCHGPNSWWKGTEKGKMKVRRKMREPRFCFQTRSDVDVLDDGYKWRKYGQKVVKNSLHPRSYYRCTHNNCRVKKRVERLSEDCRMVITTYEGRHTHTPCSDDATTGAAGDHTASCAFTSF
# The list shows a part of the results.
# Target: OsWRKY34 (Oryza sativa, UniProt Q0JBA9 1-250)
# Experiment: protein-binding microarray (RPBM); PBS, 2% BSA, 51.3 ng/ul salmon testes DNA, 50 uM zinc acetate, 200 nM TF, 25 C, 1 h; high values mean tight binding
# Details: protein: recombinant; tags: N-terminal polyhistidine and DsRed monomer fusion (pET32a); label: CyDye5-dUTP incorporated in the synthesized complementary strand; 3' TTTTT single-stranded linker to array surface; dsDNA, one strand shown
# Method in brief: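 Transcription factors were each fused at the N-terminus to a polyhistidine tag plus DsRed and expressed in E. coli BL21-CodonPlus before Ni–NTA purification. Binding to a double-stranded custom Agilent array was carried out with 200 nM protein at 25 °C for 1 h in PBS, 2% BSA, salmon testes DNA and 50 µM zinc acetate. The binding signal is per-feature fluorescence intensity, in arbitrary units, on an Axon 4000B scanner.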
row,Sequence,binding signal
1,CTGCCTACTTGCCACTTGTACGCAAGAATCCATCGTCCCTCGGAGTCACCTAGTGCAG,8060 fluorescence intensity (a.u.)
2,CTAAGGTCTAATATGTGCACTGGTTTTCGTTTCGTGTATTCGGAGTCACCTAGTGCAG,8620 fluorescence intensity (a.u.)
3,GAGCTCCTGTTGGTCGGGGACGTTTCGCGTTGGTTCCTCTCGGAGTCACCTAGTGCAG,12000 fluorescence intensity (a.u.)
4,GACTCTCCACAACCATCTCATCTCCTTCACCTTCACCTTCCGGAGTCACCTAGTGCAG,8800 fluorescence intensity (a.u.)
5,GTCTCTCACTTTTCTCTCGTAGATCGGCCGACGGGTGGGGCGGAGTCACCTAGTGCAG,11100 fluorescence intensity (a.u.)
6,GAACGTGGAGGCTTTTTTTTCTATTCCTTTAATAATATAACGGAGTCACCTAGTGCAG,8990 fluorescence intensity (a.u.)
7,CCCTCCGTTTCAAAATGTTTGACACCGTTGACTTTTTAATCGGAGTCACCTAGTGCAG,14900 fluorescence intensity (a.u.)
8,CACCACCGCCACAGTCGCGTCGCCGTCCTACCACTACTGCCGGAGTCACCTAGTGCAG,8940 fluorescence intensity (a.u.)
9,AACCCGCACGCCTCCGTTTCCGTCTCCCTTCTCCCCACCCCGGAGTCACCTAGTGCAG,8510 fluorescence intensity (a.u.)
10,CCATTTAATTCTACCTATTTTCTTAATAACCGTGTATAACCGGAGTCACCTAGTGCAG,8770 fluorescence intensity (a.u.)
11,ACACCGCTGACTTTTTAAAACATGTTTTACCGTTCGTCTTCGGAGTCACCTAGTGCAG,13600 fluorescence intensity (a.u.)
12,TGTTACAGCTTCTTATTTCAATTGATATGTTTTTAGATCACGGAGTCACCTAGTGCAG,10000 fluorescence intensity (a.u.)
13,GGCCGCAAACTAAATCAGCCCTATACTATGAGGCAAACAACGGAGTCACCTAGTGCAG,12100 fluorescence intensity (a.u.)
14,AATATGCCAGCTGATTAATTAATCTTTTTTTTGTTTTGCTCGGAGTCACCTAGTGCAG,9520 fluorescence intensity (a.u.)
15,CAACATCTTCTTTAGTTGCTCACACTTTTTCTTAGAATCACGGAGTCACCTAGTGCAG,8340 fluorescence intensity (a.u.)
16,CTCGCGCTTAATTTACTGTTTGTTTTTGTCGATTTATGCACGGAGTCACCTAGTGCAG,8890 fluorescence intensity (a.u.)
17,CTTCTACTAGTAGTATTATAACTGGGTTGTTCATTATTTGCGGAGTCACCTAGTGCAG,8930 fluorescence intensity (a.u.)
18,TCTTCTCCTAGACCTTCACATCCTTCACACATCTATATAACGGAGTCACCTAGTGCAG,9220 fluorescence intensity (a.u.)
19,GAGTAGGCTGGTCTGACCGCCGTGTGTTGGCCGGTCAGACCGGAGTCACCTAGTGCAG,10400 fluorescence intensity (a.u.)
20,ATCTCGCGTTTGTACTAAAGGTTATATATCGTTTTATTTTCGGAGTCACCTAGTGCAG,10200 fluorescence intensity (a.u.)
21,AGTTGAGGGATGGGTTATACCCGGTTTTGTGGTCAAGGGACGGAGTCACCTAGTGCAG,8330 fluorescence intensity (a.u.)
22,GAGCGACTTTTTCCCACGAAACACACCATTTAGCAGTTTGCGGAGTCACCTAGTGCAG,8310 fluorescence intensity (a.u.)
23,ATGTCTACTCTTGTGAGATTTTTTTGGTGTTGGAATACTGCGGAGTCACCTAGTGCAG,8320 fluorescence intensity (a.u.)
24,TCCGGGAGTATTATAGCATCTGTACTTCTCACCTCCTAATCGGAGTCACCTAGTGCAG,9950 fluorescence intensity (a.u.)
25,GTTGGGTGCGGTTTCCTTCCACGCTTGGGCTCGAACAACTCGGAGTCACCTAGTGCAG,9050 fluorescence intensity (a.u.)
26,CACACCATCCCCGTCCCGGATCCGGCGACCACCGATTCCTCGGAGTCACCTAGTGCAG,8850 fluorescence intensity (a.u.)
27,GCCCACGGGTGGAGACCTTGGCTAGCTGCTTGGGGTGGGCCGGAGTCACCTAGTGCAG,11000 fluorescence intensity (a.u.)

# Given as tab-separated lines: part of the list above
row	Sequence	binding signal
23	ATGTCTACTCTTGTGAGATTTTTTTGGTGTTGGAATACTGCGGAGTCACCTAGTGCAG	8320 fluorescence intensity (a.u.)
24	TCCGGGAGTATTATAGCATCTGTACTTCTCACCTCCTAATCGGAGTCACCTAGTGCAG	9950 fluorescence intensity (a.u.)
25	GTTGGGTGCGGTTTCCTTCCACGCTTGGGCTCGAACAACTCGGAGTCACCTAGTGCAG	9050 fluorescence intensity (a.u.)

# Going on with the list.

row,Sequence,binding signal
1,AGTCCAATGACTCCACCCCACCACCGATTGCTTGTCTCCACGGAGTCACCTAGTGCAG,10200 fluorescence intensity (a.u.)
2,ACTCTTGTCCTCTCTATTTTTTTTCCCAAATTAGTAGCCTCGGAGTCACCTAGTGCAG,8640 fluorescence intensity (a.u.)
3,TCACAAAAGTATACCCTTTTACACACACTCATTTTTCTTTCGGAGTCACCTAGTGCAG,10700 fluorescence intensity (a.u.)
4,ATCACTCCACAAACATTGTTTTTCCACGTTTAACTTCTACCGGAGTCACCTAGTGCAG,12800 fluorescence intensity (a.u.)
5,AGATACTGCTGACCAATATAGATACCCTGATGTCCCATCCCGGAGTCACCTAGTGCAG,8470 fluorescence intensity (a.u.)
6,GTATGTTTTTGTTTCTCTTCCATTTACCATTAAAATATGGCGGAGTCACCTAGTGCAG,8420 fluorescence intensity (a.u.)
7,TACAATGCTGGACCCATCAACATCACCAGGGGCGGATCTACGGAGTCACCTAGTGCAG,8100 fluorescence intensity (a.u.)
8,ATCATTCCTAAAATATTTCTACCGTTGGCCTCTCTACATGCGGAGTCACCTAGTGCAG,11400 fluorescence intensity (a.u.)
9,CAGTGAATCTACCACCAGCACCCTCTATCATTAACGTATCCGGAGTCACCTAGTGCAG,8180 fluorescence intensity (a.u.)
10,ATATTAGTGTCTGAACACCTCATACGACACCCTATATAATCGGAGTCACCTAGTGCAG,9020 fluorescence intensity (a.u.)
11,ATTGTTTGCTTGGTCTGCTACTTGAGTTCTTAGTTCCTTTCGGAGTCACCTAGTGCAG,12100 fluorescence intensity (a.u.)
12,TGCTCGTTTCTCAAGTTCTTGCACCAAATTGCACCCACCTCGGAGTCACCTAGTGCAG,9040 fluorescence intensity (a.u.)
13,GTGCTTATCTTCCACTTCCATGGATGTCAAATGTGCGTCACGGAGTCACCTAGTGCAG,10000 fluorescence intensity (a.u.)
14,GCGCGACTGCCACCACCTCCACCGGATTCATCTCCGCCTCCGGAGTCACCTAGTGCAG,8380 fluorescence intensity (a.u.)
15,TTGTTGTTGGTAGTAGTTTTTTGGGCACCAATTTTCCATGCGGAGTCACCTAGTGCAG,9230 fluorescence intensity (a.u.)
16,CTTTTTTTTCAAACTACTAACTTTCTCTCAACTTCGTAACCGGAGTCACCTAGTGCAG,8870 fluorescence intensity (a.u.)
17,CTTCCTGCCTGTCCCTGAGTTGTACCCGCTCTATTTTTTTCGGAGTCACCTAGTGCAG,13400 fluorescence intensity (a.u.)
18,CTGTACGCGACCCCGCGTGACGGCGTGTGGGGTGGGCACGCGGAGTCACCTAGTGCAG,11900 fluorescence intensity (a.u.)
19,GGTTATATTTATCTTCATGATTGTCGCGCTGCAGTAGAAACGGAGTCACCTAGTGCAG,9080 fluorescence intensity (a.u.)
20,ATGTGATCATCAGTGTTTGATACTACCTTTTCCATTCCAGCGGAGTCACCTAGTGCAG,8050 fluorescence intensity (a.u.)
21,CTCCTTGGCTCTTCTCTTATTTTTTTTTTTGCTTAAATTTCGGAGTCACCTAGTGCAG,11600 fluorescence intensity (a.u.)
22,CAGTTGTTTATTCTTTATGGTGGATTTTGATCAATAGGTTCGGAGTCACCTAGTGCAG,9450 fluorescence intensity (a.u.)
23,TTGCTATGTACATTTGTGTAGTGTCTGAGTACTGTTATCCCGGAGTCACCTAGTGCAG,8500 fluorescence intensity (a.u.)
24,CAAATTTCTCTAATGCTTTTGGTTCCCTTTCTGCATGAACCGGAGTCACCTAGTGCAG,8660 fluorescence intensity (a.u.)
25,TGGTGATTTTGTGTCTGTATCATCAAAATTTGGGTATCTTCGGAGTCACCTAGTGCAG,8680 fluorescence intensity (a.u.)
26,TGAGTTTATTTTTTATATGGTTGGTTCTTGTAAGTTCCTACGGAGTCACCTAGTGCAG,8550 fluorescence intensity (a.u.)
27,TTCTCCTAGCTCGATTCCACACATGTGAACGTACGTACGTCGGAGTCACCTAGTGCAG,11000 fluorescence intensity (a.u.)
